Results deposited as PubChem BioAssay AID1508597 (Cure First, 2020)
Purpose: 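Survival screen with siRNA in ovarian cancer cells derived from patients, with or without rucaparib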 (primary screen). Cells: human ovarian carcinoma lines grown from tumours: OCI-P5x (papillary serous) and OCI-C5x (clear cell). Reagent: siRNA pool against human genes, 1.25 pmol siRNA per well. Duration: 72 h or 96 h, depending on the cell culture. Treatment: rucaparib 20 µM (about IC30) or vehicle, present until read-out. Detection: 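ATP luminescence measured at 72 or 96 h according to the culture, then normalised and expressed as percent viability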. Direction: viability, normalised: higher = more viable cells remaining. Rule for the call: 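a well counts as a hit if its normalised viability is under 80 percent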. Calls: active = viability under 80%; inactive = viability 80% or more.
Here is a random part of about 2,100 deposited reagents. 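Calls flag viability under 80% in either arm, not effects specific to rucaparib; the reference for percent is not stated.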 Entries without a mark were called inactive. Not given: the 100% reference.

For CSNK2A2 (casein kinase 2 alpha 2), rucaparib or vehicle Rucaparib, cell line OCI-C5x (clear cell), technical replicate 1, what was measured?
viability, normalised (%): 46.1 (active)

For CSNK2A2 (casein kinase 2 alpha 2), rucaparib or vehicle Rucaparib, cell line OCI-C5x (clear cell), technical replicate 2, what does the deposit list?
viability, normalised (%): 41.9 (active)

Which result is listed for CSNK2A2 (casein kinase 2 alpha 2), rucaparib or vehicle Rucaparib, cell line OCI-C5x (clear cell), technical replicate 3?
viability, normalised (%): 49.7 (active)

How did the screen score CSNK2A2 (casein kinase 2 alpha 2), rucaparib or vehicle Rucaparib, cell line OCI-P5x (serous), technical replicate 1?
viability, normalised (%): 94

What is on record for CSNK2A2 (casein kinase 2 alpha 2), rucaparib or vehicle Rucaparib, cell line OCI-P5x (serous), technical replicate 2?
viability, normalised (%): 100

How did the screen score CSNK2A2 (casein kinase 2 alpha 2), rucaparib or vehicle Rucaparib, cell line OCI-P5x (serous), technical replicate 3?
viability, normalised (%): 123

How did the screen score CSNK2A2 (casein kinase 2 alpha 2), rucaparib or vehicle Vehicle, cell line OCI-C5x (clear cell), technical replicate 1?
viability, normalised (%): 80.9

With CSNK2A2 (casein kinase 2 alpha 2), rucaparib or vehicle Vehicle, cell line OCI-C5x (clear cell), technical replicate 2, what was measured?
viability, normalised (%): 59.4 (active)

How did the screen score CSNK2A2 (casein kinase 2 alpha 2), rucaparib or vehicle Vehicle, cell line OCI-C5x (clear cell), technical replicate 3?
viability, normalised (%): 45.4 (active)

How did the screen score CSNK2A2 (casein kinase 2 alpha 2), rucaparib or vehicle Vehicle, cell line OCI-P5x (serous), technical replicate 1?
viability, normalised (%): 94.9

What did the screen give for CSNK2A2 (casein kinase 2 alpha 2), rucaparib or vehicle Vehicle, cell line OCI-P5x (serous), technical replicate 2?
viability, normalised (%): 108

What did the screen give for CSNK2A2 (casein kinase 2 alpha 2), rucaparib or vehicle Vehicle, cell line OCI-P5x (serous), technical replicate 3?
viability, normalised (%): 93.6
